Results deposited as PubChem BioAssay AID686943 (Drosophila RNAi Screening Center, 2013).
In all, the deposit lists about 23,000 reagents; below is an unselected part of those that have a named target and a result. 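Extra replicates exist only for a retested subset of genes; insulin dose and duration not given; both raised and lowered dpERK matter.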 Names joined by + are all predicted targets of the reagent. Further read-outs or replicates are left out here. Reagent sequences are not shown. Not given: the amount of reagent, the time to read-out.

- Assay: 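Search across the genome for regulators of signalling from receptor tyrosine kinase to ERK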 (primary screen)
- System: Drosophila S2R+ haemocyte-like cells expressing YFP-tagged ERK (Rolled)
- Reagent: long dsRNA against Drosophila genes
- Treatment: insulin stimulation versus unstimulated cells; dose and duration not given
- Read-out: 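Antibody staining for doubly phosphorylated ERK divided by ERK-YFP signal, as plate z-scores, in insulin-treated and untreated cells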
- Scale: replicate 1, z-score of dpERK with insulin: higher = more active ERK per ERK-YFP after insulin

After knock-down of CG6901 [DRSC16129] the results were replicate 1, z-score of dpERK with insulin -0.09.
Against CG33463 [DRSC22915], the values are replicate 1, z-score of dpERK with insulin -0.1.
Against CG14618 [DRSC20631], the values are replicate 1, z-score of dpERK with insulin -0.61.
Depletion of TwdlR [DRSC14736] gave: replicate 1, z-score of dpERK with insulin 0.38.
nompB [DRSC03701] gave replicate 1, z-score of dpERK with insulin -1.11.
nompB [DRSC03731] gave replicate 1, z-score of dpERK with insulin 0.55.
Knock-down of CG4716 [DRSC06884] gave: replicate 1, z-score of dpERK with insulin -0.16.
After knock-down of kek1 [DRSC03551], the record shows replicate 1, z-score of dpERK with insulin -0.32.
Polr3K + Tcs1 [DRSC05988] gave replicate 1, z-score of dpERK with insulin 1.27.
Against AGBE [DRSC06861], the entry reads replicate 1, z-score of dpERK with insulin 1.2.
Ppr-Y [DRSC20892] gave replicate 1, z-score of dpERK with insulin 0.41.
Against RnpS1 [DRSC15154], the entry reads replicate 1, z-score of dpERK with insulin 1.67.
CG34269 [DRSC07884] showed replicate 1, z-score of dpERK with insulin 0.14.
With knock-down of CG13056 [DRSC09937] the results were replicate 1, z-score of dpERK with insulin 0.93.
Depletion of Rh5 [DRSC03412] came out at: replicate 1, z-score of dpERK with insulin -0.29.
For Dbx [DRSC08270], the entry reads replicate 1, z-score of dpERK with insulin 0.07.
Dbx [DRSC08271] showed replicate 1, z-score of dpERK with insulin 0.75.
For Dbx [DRSC08394] the deposit lists replicate 1, z-score of dpERK with insulin 1.07.
For RpL31 [DRSC06716], the values are replicate 1, z-score of dpERK with insulin -1.87.
CG30192 [DRSC03977] showed replicate 1, z-score of dpERK with insulin -0.19.
Silencing of mtg [DRSC16256] gave: replicate 1, z-score of dpERK with insulin -0.66.
Knock-down of CG7945 [DRSC10934] came out at: replicate 1, z-score of dpERK with insulin -0.32.
Depletion of AIMP3 [DRSC04500] resulted in: replicate 1, z-score of dpERK with insulin 0.43.
With knock-down of CG13326 [DRSC06363], the record shows replicate 1, z-score of dpERK with insulin 0.47.
Depletion of por [DRSC20362] gave: replicate 1, z-score of dpERK with insulin 0.6.
CG42676 [DRSC08227] scored replicate 1, z-score of dpERK with insulin 0.67.
Depletion of CG42676 [DRSC08392] resulted in: replicate 1, z-score of dpERK with insulin -0.51.
For Tcs4 [DRSC19587] the deposit lists replicate 1, z-score of dpERK with insulin 0.08.
After knock-down of Ance-3 [DRSC02648], the record shows replicate 1, z-score of dpERK with insulin 0.36.
For Ance-3 [DRSC02649], the values are replicate 1, z-score of dpERK with insulin -0.27.
CG30159 [DRSC04981] showed replicate 1, z-score of dpERK with insulin 0.22.
With knock-down of Axud1 [DRSC00270], the record shows replicate 1, z-score of dpERK with insulin 0.09.
With knock-down of CG9018 [DRSC08618], the screen gave replicate 1, z-score of dpERK with insulin -0.84.
For dmrt99B [DRSC15045], the values are replicate 1, z-score of dpERK with insulin -0.57.
Bka [DRSC02757] gave replicate 1, z-score of dpERK with insulin -1.32.
Silencing of CG5390 [DRSC02855] gave: replicate 1, z-score of dpERK with insulin 1.36.
CG33099 [DRSC15774] showed replicate 1, z-score of dpERK with insulin -0.03.
For CG13068 [DRSC09951], the values are replicate 1, z-score of dpERK with insulin 0.75.
With knock-down of CG32971 [DRSC01372], the screen gave replicate 1, z-score of dpERK with insulin 0.17.
CG15011 [DRSC08464] showed replicate 1, z-score of dpERK with insulin -1.44.

Reformatted: 5 of the entries above
{"gene": "CG14618", "DRSC id": "DRSC20631", "replicate 1, z-score of dpERK with insulin": -0.61}
{"gene": "TwdlR", "DRSC id": "DRSC14736", "replicate 1, z-score of dpERK with insulin": 0.38}
{"gene": "nompB", "DRSC id": "DRSC03701", "replicate 1, z-score of dpERK with insulin": -1.11}
{"gene": "nompB", "DRSC id": "DRSC03731", "replicate 1, z-score of dpERK with insulin": 0.55}
{"gene": "CG4716", "DRSC id": "DRSC06884", "replicate 1, z-score of dpERK with insulin": -0.16}
